In PMC12517396 one finds binding data, which are given here for one substance.

Chains of the proteins cited; added tags and fusions are not shown.
UniProt Q9Y297: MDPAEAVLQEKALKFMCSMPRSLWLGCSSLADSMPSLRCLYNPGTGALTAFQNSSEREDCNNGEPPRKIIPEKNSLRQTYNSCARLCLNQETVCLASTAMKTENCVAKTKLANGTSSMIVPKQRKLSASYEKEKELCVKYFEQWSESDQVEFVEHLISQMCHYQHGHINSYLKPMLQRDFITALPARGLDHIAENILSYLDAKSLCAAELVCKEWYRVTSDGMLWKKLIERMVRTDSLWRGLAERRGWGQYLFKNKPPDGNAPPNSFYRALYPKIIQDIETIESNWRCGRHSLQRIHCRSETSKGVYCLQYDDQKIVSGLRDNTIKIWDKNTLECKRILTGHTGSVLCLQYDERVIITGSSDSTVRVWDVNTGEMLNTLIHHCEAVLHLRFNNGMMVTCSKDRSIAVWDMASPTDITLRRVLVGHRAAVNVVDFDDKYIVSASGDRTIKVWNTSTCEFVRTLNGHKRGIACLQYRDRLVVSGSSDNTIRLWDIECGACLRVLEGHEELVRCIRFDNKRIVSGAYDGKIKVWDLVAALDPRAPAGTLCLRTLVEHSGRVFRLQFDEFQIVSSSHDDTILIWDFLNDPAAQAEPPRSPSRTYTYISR

No constants are given. Whether binding was seen depends on the method and setting. In cells and extracts the contact can be indirect. Some binding calls cover weakened binding; strength is not graded here.

This assay has as its target T1, Tumor necrosis factor-α induced protein 8 like-2 (TIPE2) (human (endogenous in BEAS-2B)) (UniProt Q6P589).
T1 sequence: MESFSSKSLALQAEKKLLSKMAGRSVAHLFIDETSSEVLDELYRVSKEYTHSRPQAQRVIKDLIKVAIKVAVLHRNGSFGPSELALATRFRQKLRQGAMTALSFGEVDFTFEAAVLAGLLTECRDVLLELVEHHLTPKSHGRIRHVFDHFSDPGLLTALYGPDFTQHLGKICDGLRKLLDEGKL
The experiment in a line: co-IP; BEAS-2B cell lysate in Co-IP buffer (120 mM NaCl, 40 mM HEPES pH 7.4, 0.3% CHAPS), primary antibody 1 h, Protein A-Sepharose overnight at 4°C, 5 washes, western blot.

Turning to “E3 ubiquitin ligase β-Transducin Repeat-containing protein (FBW1A) (from UniProt Q9Y297 1-605)”, the binding result is “binds”.
